Source: PubChem BioAssay AID1259264 (Sanger Institute, 2017)
Aim: 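Kinases whose loss cuts CL40 colorectal cancer cell survival, alone or with drugs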 (primary screen). Cells: CL40 human colorectal cancer cells. Reagent: siRNA pool against human genes. Conditions: DMSO, or an anchor drug: BYL719 at 1 µM, cetuximab at 5 µg/ml, or trametinib at 10 nM. Read-out: 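Viability as a fraction of non-targeting pool control (replicates averaged), control-based robust z-score, plus averaged synergy for each drug: BYL719 1 µM, cetuximab 5 µg/ml, trametinib 10 nM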. Scale: robust z-score, siRNA alone and viability, siRNA alone: higher = more viable cells. Units: viability, siRNA alone in fraction of control. Rule for the call: 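Essential call: siRNA with no drug reaches a robust z under -3 (low cell count); drug synergy scores do not affect it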. Meaning of the calls: active = essential (lowers viability alone); inactive = not essential.
This is a random part of 794 reagents tested. 15 of them (1.9%) count as active. 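Calls rest on knock-down alone at z-score below -3; synergy scores with the three drugs do not decide them.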 Unmarked entries are inactive. No viability above 1 is reported: the scale is capped. Further read-outs or replicates are left out here. Not given: the amount of reagent, the time to read-out.

The opening 2 entries as a preview:
PFKFB1 (6-phosphofructo-2-kinase/fructose-2,6-biphosphatase 1)
- robust z-score, siRNA alone: -0.753
- viability, siRNA alone: 0.907

GOLGA5 (golgin A5)
- robust z-score, siRNA alone: 0.539
- viability, siRNA alone: 1

The list itself, from the first entry:
PFKFB1 (6-phosphofructo-2-kinase/fructose-2,6-biphosphatase 1)
- robust z-score, siRNA alone: -0.753
- viability, siRNA alone: 0.907

GOLGA5 (golgin A5)
- robust z-score, siRNA alone: 0.539
- viability, siRNA alone: 1

BLK (BLK proto-oncogene, Src family tyrosine kinase)
- robust z-score, siRNA alone: 0.539
- viability, siRNA alone: 1

CSNK2B (casein kinase 2 beta)
- robust z-score, siRNA alone: 0.322
- viability, siRNA alone: 0.984

SGK2 (serum/glucocorticoid regulated kinase 2)
- robust z-score, siRNA alone: -0.275
- viability, siRNA alone: 0.942

NUCKS1
- robust z-score, siRNA alone: 0.539
- viability, siRNA alone: 1

DLG4 (discs large MAGUK scaffold protein 4)
- robust z-score, siRNA alone: -0.588
- viability, siRNA alone: 0.919

PHKB (phosphorylase kinase regulatory subunit beta)
- robust z-score, siRNA alone: 0.539
- viability, siRNA alone: 1

CLSPN (claspin)
- robust z-score, siRNA alone: 0.539
- viability, siRNA alone: 1

CDK12 (cyclin dependent kinase 12)
- robust z-score, siRNA alone: 0.202
- viability, siRNA alone: 0.976

AK4 (adenylate kinase 4)
- robust z-score, siRNA alone: 0.539
- viability, siRNA alone: 1

CAMKV (CaM kinase like vesicle associated)
- robust z-score, siRNA alone: -0.5
- viability, siRNA alone: 0.926

CIB2 (calcium and integrin binding family member 2)
- robust z-score, siRNA alone: -2.5
- viability, siRNA alone: 0.782

TCF7L2 (transcription factor 7 like 2)
- robust z-score, siRNA alone: 0.524
- viability, siRNA alone: 0.999

CDK8 (cyclin dependent kinase 8)
- robust z-score, siRNA alone: 0.539
- viability, siRNA alone: 1

BTK (Bruton tyrosine kinase)
- robust z-score, siRNA alone: -0.343
- viability, siRNA alone: 0.937

EGFR (epidermal growth factor receptor)
- robust z-score, siRNA alone: -0.348
- viability, siRNA alone: 0.936

GCK (glucokinase)
- robust z-score, siRNA alone: 0.539
- viability, siRNA alone: 1

EIF2AK3 (eukaryotic translation initiation factor 2 alpha kinase 3)
- robust z-score, siRNA alone: 0.539
- viability, siRNA alone: 1

AMER1 (APC membrane recruitment protein 1)
- robust z-score, siRNA alone: 0.539
- viability, siRNA alone: 1

EIF2AK1 (eukaryotic translation initiation factor 2 alpha kinase 1)
- robust z-score, siRNA alone: 0.539
- viability, siRNA alone: 1

CRIM1 (cysteine rich transmembrane BMP regulator 1)
- robust z-score, siRNA alone: -0.305
- viability, siRNA alone: 0.94

TNNI3K (TNNI3 interacting kinase)
- robust z-score, siRNA alone: 0.346
- viability, siRNA alone: 0.986

CHEK2 (checkpoint kinase 2)
- robust z-score, siRNA alone: -0.191
- viability, siRNA alone: 0.948

PRKAG2 (protein kinase AMP-activated non-catalytic subunit gamma 2)
- robust z-score, siRNA alone: 0.539
- viability, siRNA alone: 1

STK11 (serine/threonine kinase 11)
- robust z-score, siRNA alone: -2
- viability, siRNA alone: 0.818

GRK3 (G protein-coupled receptor kinase 3)
- robust z-score, siRNA alone: 0.539
- viability, siRNA alone: 1

IRAK2 (interleukin 1 receptor associated kinase 2)
- robust z-score, siRNA alone: 0.197
- viability, siRNA alone: 0.975
